Paper PMC10928986, “ARTC1-mediated VAPB ADP-ribosylation regulates calcium homeostasis” (Journal of Molecular Cell Biology, 2023)
No constants are given. Whether binding was seen depends on the method and setting. Binding seen in cells or lysates may run through a third protein. Some results given as binding are weak or reduced against the parent protein; the word gives no strength. For some of these results: Sequences can lack the tags named with a protein. One block for each binder: values may come before it.

The chains behind the UniProt entries cited, without tags or fusion partners.
UniProt O95292: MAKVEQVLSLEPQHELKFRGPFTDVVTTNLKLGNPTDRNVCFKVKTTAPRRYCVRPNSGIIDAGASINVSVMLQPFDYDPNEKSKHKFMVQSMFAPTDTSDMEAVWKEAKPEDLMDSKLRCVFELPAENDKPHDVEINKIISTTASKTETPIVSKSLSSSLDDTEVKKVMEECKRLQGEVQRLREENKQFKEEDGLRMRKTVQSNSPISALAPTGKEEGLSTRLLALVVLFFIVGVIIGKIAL

What was measured:
[1] = target: SFB-tagged human full-length VAPB (wild type) (human) (UniProt O95292); assay: co-IP; exogenous co-IP from lysates of AC16 cells transfected with the indicated plasmids; lysis in NETN 300, anti-HA with Protein G-Sepharose or streptavidin agarose, washes in NETN 100
[2] = target: T1, endogenous hARTC1 (human (endogenous in AC16 and 293T)) (UniProt P52961); assay: co-IP; endogenous co-IP of hARTC1 and hARTC3 in AC16 cells and 293T cells
T1 sequence: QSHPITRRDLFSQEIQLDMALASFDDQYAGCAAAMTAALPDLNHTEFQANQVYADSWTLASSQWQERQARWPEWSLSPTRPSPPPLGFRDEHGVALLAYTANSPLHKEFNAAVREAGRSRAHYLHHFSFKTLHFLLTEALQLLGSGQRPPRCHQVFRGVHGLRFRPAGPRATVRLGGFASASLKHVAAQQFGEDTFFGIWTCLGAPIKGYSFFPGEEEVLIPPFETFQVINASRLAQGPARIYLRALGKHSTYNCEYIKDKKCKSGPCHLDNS

[3] = target: endogenous VAPB (human (endogenous in AC16 and HEK-293T)) (UniProt O95292); assay: co-IP; endogenous co-IP of VAPB and SCRN1 from lysates of control or ARTC1-knockdown AC16 cells

B2: endogenous hARTC3 (protein, UniProt Q13508 27-362)
chain: EVLDMADNAFDDEYLKCTDRMEIKYVPQLLKEEKASHQQLDTVWENAKAKWAARKTQIFLPMNFKDNHGIALMAYISEAQEQTPFYHLFSEAVKMAGQSREDYIYGFQFKAFHFYLTRALQLLRKPCEASSKTVVYRTSQGTSFTFGGLNQARFGHFTLAYSAKPQAANDQLTVLSIYTCLGVDIENFLDKESERITLIPLNEVFQVSQEGAGNNLILQSINKTCSHYECAFLGGLKTENCIENLEYFQPIYVYNPGEKNQKLEDHSEKNWKLEDHGEKNQKLEDHGVKILEPTQIPGMKIPEPFPLPEDKSQGNINNPTPGPVPVPGPKSHPSAS
binding [2]: binds

B4: endogenous SCRN1 (protein, UniProt Q12765 1-414)
chain: MAAAPPSYCFVAFPPRAKDGLVVFGKNSARPRDEVQEVVYFSAADHEPESKVECTYISIDQVPRTYAIMISRPAWLWGAEMGANEHGVCIANEAINTREPAAEIEALLGMDLVRLGLERGETAKEALDVIVSLLEEHGQGGNYFEDANSCHSFQSAYLIVDRDEAWVLETIGKYWAAEKVTEGVRCICSQLSLTTKMDAEHPELRSYAQSQGWWTGEGEFNFSEVFSPVEDHLDCGAGKDSLEKQEESITVQTMMNTLRDKASGVCIDSEFFLTTASGVSVLPQNRSSPCIHYFTGTPDPSRSIFKPFIFVDDVKLVPKTQSPCFGDDDPAKKEPRFQEKPDRRHELYKAHEWARAIIESDQEQGRKLRSTMLELEKQGLEAMEEILTSSEPLDPAEVGDLFYDCVDTEIKFFK
binding [3]: binds

Next, values leading:

binding [1]: binds
B1: hARTC1, exogenously expressed in AC16 cells (enzyme, UniProt P52961 23-295)
chain: T1 sequence

binding [1]: binds
B3: HA-tagged human full-length SCRN1 (protein, UniProt Q12765 1-414)
chain: B4 chain
